Primary screen of a compound library

The chains behind the UniProt entries cited, without tags or fusion partners.
UniProt E9BF75, entry or part of it: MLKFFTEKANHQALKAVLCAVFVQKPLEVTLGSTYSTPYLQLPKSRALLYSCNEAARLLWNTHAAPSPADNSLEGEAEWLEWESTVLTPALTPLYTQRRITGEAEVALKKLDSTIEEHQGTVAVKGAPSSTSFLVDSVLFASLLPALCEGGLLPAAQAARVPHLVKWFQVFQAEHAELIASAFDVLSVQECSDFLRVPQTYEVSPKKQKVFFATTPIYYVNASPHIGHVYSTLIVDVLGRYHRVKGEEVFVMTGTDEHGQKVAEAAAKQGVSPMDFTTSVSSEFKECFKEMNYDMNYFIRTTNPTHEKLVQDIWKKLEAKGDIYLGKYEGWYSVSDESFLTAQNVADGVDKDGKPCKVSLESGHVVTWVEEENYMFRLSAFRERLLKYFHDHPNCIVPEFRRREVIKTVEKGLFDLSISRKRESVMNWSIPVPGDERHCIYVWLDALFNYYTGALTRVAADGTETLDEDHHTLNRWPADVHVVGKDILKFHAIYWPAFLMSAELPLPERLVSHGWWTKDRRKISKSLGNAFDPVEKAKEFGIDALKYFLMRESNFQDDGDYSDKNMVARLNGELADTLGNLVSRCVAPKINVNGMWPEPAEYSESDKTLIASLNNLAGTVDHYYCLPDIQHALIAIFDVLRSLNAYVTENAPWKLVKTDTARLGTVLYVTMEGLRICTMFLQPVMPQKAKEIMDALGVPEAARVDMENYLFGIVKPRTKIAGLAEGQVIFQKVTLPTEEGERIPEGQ

Data taken from ChEMBL document CHEMBL3988442, “University of Dundee, Small-Polar-MMV Screening Library” (2021).

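Methionyl-tRNA synthetase (putative), Leishmania donovani (UniProt E9BF75). Primary screen of methionyl-tRNA synthetase; the read-out is not stated. The test concentration is not given. Values are per cent inhibition. Size under these conditions: about 68,000 compounds, about 24 of them at 50% or above in at least one test.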

All values are in %. How 0% and 100% were set is not recorded. Most values in the screen are low, and negative values occur. This is an unselected part of the compounds tested.

With CC(C)(C)c1cn(C2CCN(C(=O)c3cncnc3)CC2)nn1 the screen gave 0%. CC(C)CCOCCNC(=O)Nc1ccc(F)c(C(N)=O)c1 read 14.75%. With Cc1ccc(CC(=O)N2CCCn3nnc(Cn4cccn4)c3C2)cc1 the screen gave 10.22%. Result for CN1CCn2c(-c3cccc(F)c3)cnc2C12CCN(CC1CC1)CC2 was 8.711%. c1ccn(Cc2nnc3n2CCCN(Cc2ccoc2)C3)c1 read 3.125%. For Cn1ncc2c1CN(Cc1ccccc1F)CC2COCC1CC1 (stereo not given) the result was 5%.

With COCC(=O)NCc1cccnc1-n1cnc2ccccc21 the screen gave 3.297%. Result for O=C1CCC(=O)N1c1nn(Cc2ccccc2)cc1Cl was -3.514%. Result for Cc1cnn(CC2CCCCN2C(=O)c2cccc(C(N)=O)c2)c1 (stereo not given) was 14.92%. CN(C)C(=O)N1CCC2(CC1)C(=O)N(CC1CCOC1)c1ccccc12 (stereo not given) read 16.81%. CS(=O)(=O)NC[C@H]1OC[C@@H]2CCN(Cc3ccc(F)cc3)C[C@@H]21 read 4.603%. COc1cccc(C(O)CN2CCN(c3cccc(C)c3)CC2)c1 (stereo not given) gave 13.52%.

With CN(C)CCNC(=O)C1Cc2nc(-c3ccsc3)sc2N1CC1CC1 (stereo not given) the screen gave 10.68%. O=C1CC(c2ccccc2)C2(CCN(Cc3ccncc3)CC2)N1 (stereo not given) read 3.922%. Cn1cc(CC2CCN(C(=O)NCc3cccc(C#N)c3)C2)cn1 (stereo not given) gave -1.053%. CN(Cc1ccc2c(c1)OCO2)C(=O)c1ccc(C2CCCO2)s1 (stereo not given) read 8.099%. CSCCC(NC(=O)C1CC1)C(=O)N(C)Cc1ccsc1 (stereo not given) read -0.838%. Cc1cnn(CCNCc2csc(-c3ccsc3)n2)c1 read 20.22%.

Result for CC(C)c1nsc(N2CCCOCC2)n1 was 5.621%. Cc1ccc(C(=O)N2CCc3ccc(=O)n(CCN(C)C)c3CC2)o1 read 9.645%. With CN(C)c1ncccc1CNC(=O)NCc1cccs1 the screen gave 18.18%. Result for COc1ccc(S(=O)(=O)NCCCc2ccc(N(C)C)cc2)cc1F was 10.07%. CN1CC(=O)N(c2cnn(C)c2)CC12CCN(Cc1nccn1C)C2 (stereo not given) gave 10.5%. For Cc1cc2cc(CNC3CCN(S(C)(=O)=O)CC3)oc2cc1C the result was 11.7%.

With c1ncn(CC2CCCN(Cc3noc(C4CC4)n3)C2)n1 (stereo not given) the screen gave 12.54%. Result for CN1CC2(CCCN(Cc3cccc(CCN)c3)C2)OC1=O (stereo not given) was 24.93%. Result for Cc1ccc(CN2C[C@@H]3CCN(Cc4cccnc4)C(=O)[C@H]3C2)s1 was 5.602%. Result for CC(c1ccncn1)N(C)Cc1cc2cc3c(cc2[nH]c1=O)OCO3 (stereo not given) was -16.37%. Result for Cc1nc(CN2CCn3cc(CNC(=O)C4CCC4)nc3C2)cs1 was 7.95%. Result for CCCN1CCC(CNC(=O)C2(c3cc(C)cc(C)c3)CCC2)C1 (stereo not given) was 14.25%.

For C(=C/c1ccc(CN2CCCC2)cn1)\c1ccccc1 the result was 10.07%. Result for O=C(c1cccnc1)N1CCCC(Cc2nccs2)C1 (stereo not given) was 8.01%. For CCC(=O)N1CCC(Cc2ccccc2-c2ccccc2F)(C(N)=O)C1 (stereo not given) the result was 14.24%. Result for COCc1cc(N(C)CCC(O)c2ccccc2)n2nccc2n1 (stereo not given) was 12.79%. With Cc1cc(CN(C)C(=O)NC2CCN(S(C)(=O)=O)CC2)no1 the screen gave 10.65%. For O=C1CCC(=O)N1CCN1CCN(c2cc(F)ccc2F)CC1 the result was 15.49%.

Result for Cn1ncc2c(N3CCS(=O)(=O)CC3)nc(-c3cccnc3)nc21 was 7.5%. Result for CS(=O)(=O)NC(=O)c1ccn(-c2ccccc2Cl)n1 was 17.65%. With O=C(Nc1ccccc1)c1ccc(NCc2ccccc2CO)nn1 the screen gave 8.521%. With CN1CCCCCC1C(=O)N1CCCN(c2ccccc2)CC1 (stereo not given) the screen gave -0.5602%. COCCN1C2(CCN(Cc3nccs3)C2)c2ccccc2S1(=O)=O (stereo not given) gave 9.95%. Cc1cc(C)n(C2CN(CC(O)c3ccc(F)cc3)C2)n1 (stereo not given) gave 9.312%.

CCS(=O)(=O)N1CCCCC1c1nc(C(C)C)no1 (stereo not given) read 7.649%. CC(C)c1noc(-c2ccc(NCCCC3CCOC3)nc2)n1 (stereo not given) gave 14.38%. COC(=O)Cn1c(=O)nc2n1C(=O)N(c1ccccc1)C2 read 11.11%. For O=C(NS(=O)(=O)c1ccc(C2CCCCC2)cc1)C1COCCO1 (stereo not given) the result was 15.25%. O=C(c1cccc(S(=O)(=O)NCCCc2ncc[nH]2)c1)N1CCOCC1 gave 11.33%. CCCN(CCC)C1(Cc2cc(-c3cccc(O)c3)on2)COC1 read 14.29%.

For CC(=O)NCCNC(=O)c1sccc1Br the result was 8.635%. For Cc1cc(CN(C)C(=O)NC(C)Cc2ccco2)no1 (stereo not given) the result was 10.13%. CCc1nc(CN(C)Cc2nnc(-c3cccs3)o2)cs1 gave 9.424%. With Cc1nn(C)cc1C(=O)N1CCCC(c2nccn2Cc2cscn2)C1 (stereo not given) the screen gave 13.38%.

3 of the entries, repeated:

| Compound | Inhibition |
|---|---|
| `CCc1nc(CN(C)Cc2nnc(-c3cccs3)o2)cs1` | 9.424 |
| `Cc1cnn(CCNCc2csc(-c3ccsc3)n2)c1` | 20.22 |
| `Cc1cc(CN(C)C(=O)NC(C)Cc2ccco2)no1` (stereo not given) | 10.13 |